Values quoted from earlier work as cited in patent publication US12364668B2, “Treatment of opioid use disorder, opioid withdrawal symptoms, and chronic pain” (THE REGENTS OF THE UNIVERSITY OF CALIFORNIA, priority 2017, dated 2025).

Details: Pisanti et al. 2017; cited from earlier work

C=C(C)[C@@H]1CCC(C)=C[C@H]1c1c(O)cc(CCCCC)cc1O [CBD, cannabidiol]
Bioavailability after oral administration: 13-19%
